# In PubChem BioAssay AID2685 (National Center for Advancing Translational Sciences (NCATS), 2010):
# This is one part of the list. Shown are side measurements of this screen, not its main read-out; they come without a call. Most of these compounds were active or inconclusive in the main read-out, so they are no random draw. Potencies come from curve fits of mixed quality, noted in brackets.
# Test: qHTS Assay for Lipid Storage Modulators in Drosophila S3 Cells;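 as to cell number change: cells counted by Cell Tracker Red CMTPX staining in the red channel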
# Conditions: BODIPY lipid droplet fluorescence, 18-24 h; for cell number change: measured here: cell count max response, cells fed with added oleic acid
# How it was run: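 Drosophila S3 cells loaded with oleic acid (400 uM, as added) and compounds at several concentrations; lipid droplets imaged by 488-nm laser-scanning cytometry, 500–530 nm intensity and object ratio to cell channel. Percent activity normalized to 20 uM Triacsin C.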
# [1] = measured here: lipid fluorescence (Fed channel) AC50, cells fed with added oleic acid
# [2] = measured here: cell number channel AC50, cells fed with added oleic acid
Compound,cell number change,AC50 [1],AC50 [2]
COc1cc(OC)cc(C(=O)Nc2sc3c(c2C(N)=O)CCC3)c1,-1.21%,"5.8 µM [falling, partial curve, poor fit]",–
Cc1ccccc1NS(=O)(=O)CCCCC(Cl)(Cl)Cl,-17.1%,"29.1 µM [falling, single point]",–
O=C1C(Cc2ccccc2)Nc2ncnc(N3CCOCC3)c2N1Cc1ccc(Br)cc1 (stereo not drawn),5.28%,"0.291 µM [rising, full curve]",–
CCCCNC(=O)CS(=O)Cc1nc(-c2cccc(Cl)c2)oc1C (stereo not drawn),47.3%,–,"29.1 µM [rising, single point]"
O=C(CNc1ccccc1-c1ccccc1)NCc1ccccc1,20.6%,"14.6 µM [rising, single point]",–
Cn1c(NC(=O)C2CC2)cc(=O)n(C)c1=O,68%,"29.1 µM [rising, single point]","29.1 µM [rising, single point]"
C=CCn1cnc2scc(-c3ccccc3)c2c1=O,-6.69%,–,"0.731 µM [falling, single point]"
COc1ccc(CN(C(=O)c2cc3ccccc3oc2=O)C2CCS(=O)(=O)C2)cc1 (stereo not drawn),-12%,"0.82 µM [falling, full curve, poor fit]","0.164 µM [falling, full curve, poor fit]"
CC(NC(=O)c1ccccc1F)C(=O)O (stereo not drawn),-18.4%,"0.103 µM [falling, full curve, poor fit]",–
CC(=O)Nc1ccc(NC(=O)CCc2c(C)noc2C)cc1,-20.7%,–,–
CCOc1ccc(NC(=O)Nc2nnc(CC)s2)cc1,0.356%,–,–
Cc1cc(C)n(C(=O)COc2c(C)cccc2C)n1,-165%,"29.1 µM [falling, single point]","29.1 µM [falling, single point]"
CN(C(=O)COc1ccc(Oc2ccccc2)cc1)C1CCS(=O)(=O)C1 (stereo not drawn),18.5%,"0.231 µM [rising, full curve, poor fit]","6.51 µM [rising, single point]"
CCC(C)(C)n1nnnc1C(c1cc2ccc(OC)cc2[nH]c1=O)N1CCc2ccccc21 (stereo not drawn),-31.2%,"0.731 µM [rising, full curve]","20.6 µM [falling, partial curve]"
CCCn1cc(S(=O)(=O)CC(=O)Nc2ccc(OCC)cc2)c2ccccc21,242%,"14.6 µM [rising, partial curve]","13 µM [rising, partial curve]"
CCC1CCCCN1CCCNC(=O)c1ccc(CS(=O)(=O)c2ccccc2C)o1 (stereo not drawn),93.1%,"29.1 µM [rising, single point]","29.1 µM [rising, single point]"
Cc1cccc(C)c1OCCSc1nc2ccccc2n1CC(=O)O,15%,"23.1 µM [rising, single point]",–
Cc1ccc(Sc2ccc([N+](=O)[O-])cc2[N+](=O)[O-])nc1,0.656%,"0.0231 µM [falling, full curve, poor fit]","0.461 µM [falling, full curve, poor fit]"
CC(=O)NS(=O)(=O)c1ccc(NC(=O)c2ccc(Cl)cc2[N+](=O)[O-])cc1,39.9%,"1.84 µM [rising, full curve, poor fit]",–
CCn1c(C)nc2cc(C(=O)NNC(=S)NC(=O)c3ccccc3)ccc21,76.1%,–,–

Compound,cell number change,AC50 [1],AC50 [2]
O=S(=O)(NCCc1ccncc1)c1ccc(S(=O)(=O)N2CCCCCC2)cc1,-14.6%,–,–
Cc1ccc(NC(=O)c2cn(-c3cccc(C)n3)cn2)cc1,-16.3%,"0.00366 µM [falling, full curve, poor fit]",–
CN(C(=O)COC(=O)c1cc2ccccc2cc1O)c1c(N)n(Cc2ccccc2)c(=O)[nH]c1=O,-39.6%,"0.291 µM [falling, partial curve, poor fit]","29.1 µM [falling, single point]"
CC(C)C(=O)Nc1nnc(Cc2c[nH]c3ccccc23)s1,11.5%,–,–
COc1ccc(-c2cnc(N)n2CC2CCCO2)cc1 (stereo not drawn),9.55%,–,"0.92 µM [rising, partial curve, poor fit]"
CCOC(=O)c1c(NC(=O)C2=C(C)NC(=S)NC2c2ccc(CC)cc2)sc(C)c1C (stereo not drawn),12.1%,–,–
Cc1nn(-c2ccccc2)c2ncc(C(=O)c3cc(Cl)ccc3O)cc12,-27%,–,"0.013 µM [falling, full curve, poor fit]"
CCOC(=O)Cc1csc(NS(=O)(=O)c2ccc(F)cc2)n1,-14.5%,–,–
CC(=O)Nc1ccc(S(=O)(=O)NNC(=O)COc2ccc(C(C)(C)C)cc2)cc1,-38.9%,"29.1 µM [falling, single point]","25.9 µM [falling, partial curve]"
CCCN(C(=O)c1ccc(S(=O)(=O)N2CCCC2)cc1)C1CCS(=O)(=O)C1 (stereo not drawn),-10.8%,"0.461 µM [falling, full curve]","0.731 µM [falling, single point]"
COc1ccc(C(=O)O/N=C2\CCCc3nonc32)cc1,-18%,"0.146 µM [falling, full curve, poor fit]",–
CCOc1cc2[nH]c(=O)n(CCCC(=O)NCc3ccco3)c(=O)c2cc1OCC,-41.2%,"23.1 µM [falling, partial curve]","18.4 µM [falling, partial curve]"
CC(C)(C)N(Cc1ccccc1)C(=O)CCc1ccccc1,4.14%,–,–
CCN(CC)c1ccc(/C=N/Nc2nc(C)cc(=O)[nH]2)cc1,-14.9%,"6.51 µM [rising, partial curve]","0.291 µM [rising, full curve, poor fit]"
CCc1cccc2c(/C=N/NC(=O)c3cccc(S(=O)(=O)Nc4ccccc4Cl)c3)c[nH]c12,-47.8%,"14.6 µM [falling, partial curve]","23.1 µM [falling, partial curve, poor fit]"
CCOC(=O)C1=C(C)NC(SCC(N)=O)=C(C#N)C1c1cccs1 (stereo not drawn),–,–,"0.58 µM [rising, full curve]"
CC(=O)Nc1ccc(S(=O)(=O)N(C)CC(=O)OCC(=O)N2CCN(C(=O)c3ccco3)CC2)cc1,7.75%,"11.6 µM [rising, partial curve]",–
CC(NC(=O)c1cccnc1)C(c1cccs1)N1CCN(C)CC1 (stereo not drawn),10.1%,–,–
Cc1cccc(C(=O)OCC(=O)c2ccc(CC(=O)N3CCOCC3)s2)c1C,-21.5%,"2.59 µM [rising, single point]",–
Cc1nc2c(Cl)cccc2[nH]1,42.7%,"6.51 µM [falling, single point]","32.6 µM [rising, single point]"

Compound,cell number change,AC50 [1],AC50 [2]
Cc1ccc(OCC(=O)N(Cc2cccs2)C2CCS(=O)(=O)C2)cc1C (stereo not drawn),23.9%,–,"0.461 µM [rising, single point]"
CCOC(=O)NC(=O)/C(C#N)=N\Nc1cccc(OC)c1,-22.7%,–,–
Cc1ccc(Cn2c(SCC(=O)NCC3CCCO3)nc3c(sc4ccccc43)c2=O)cc1 (stereo not drawn),14%,–,"5.8 µM [rising, single point]"
Cc1cccc(N/N=C/c2ccccc2O)c1,-8.37%,–,–
Cc1ccc(OCC(=O)N/N=C\c2c(C)n(C)c3ccccc23)c([N+](=O)[O-])c1,12.9%,"6.51 µM [rising, single point]",–
COc1ccc(NC(=O)CSc2nnc(C3CC3)n2-c2ccccc2)cc1,–,"6.51 µM [rising, single point]","5.8 µM [rising, single point]"
O=C(Cc1ccccc1[N+](=O)[O-])NC1CCN(Cc2ccccc2)CC1,8.5%,–,–
COc1ccc(CCNC(N)=S)cc1OC,24.6%,–,–
Cc1ccc(/C=C2\SC(N)=NC2=O)s1,108%,"9.2 µM [rising, partial curve]","10.3 µM [rising, partial curve, poor fit]"
COc1cc(C2NC(=O)NC(C)=C2C(=O)OC(C)(C)C)ccc1OCC(=O)O (stereo not drawn),-31.1%,"0.0164 µM [falling, full curve, poor fit]","1.64 µM [falling, full curve, poor fit]"
Cc1ccc(-n2ncc3c2CC(C)(C)CC3NC(=O)CCc2ccc(=O)[nH]n2)cc1 (stereo not drawn),31.3%,"2.31 µM [rising, single point]","9.2 µM [rising, partial curve, poor fit]"
CCOC(=O)N1CCN(S(=O)(=O)c2ccc(OCC(=O)OC)c(C)c2)CC1,-19.4%,–,"0.651 µM [falling, full curve, poor fit]"
O=C(Nc1cc(S(=O)(=O)N2CCOCC2)ccc1N1CCCC1)C1COc2ccccc2O1 (stereo not drawn),22.7%,"0.651 µM [rising, single point]","4.11 µM [rising, partial curve, poor fit]"
COc1ccc(N(CC(=O)Nc2ccccc2C(=O)N2CCCC2)S(=O)(=O)c2ccccc2)cc1,-2.93%,–,–
CCOC(=O)C1CCN(c2cc3c(cc2NC(=O)c2ccccc2)n(C)c(=O)n3C)CC1,–,"6.51 µM [falling, single point]",–
O=C(COc1ccccc1[N+](=O)[O-])N1CCN(c2ccccn2)CC1,-22.5%,–,–
CC1CCCC(NC(=O)COC(=O)CCSc2ccccc2)C1C (stereo not drawn),4.75%,–,–
CCOC(=O)c1cnc(SCC(=O)Nc2cc(C(F)(F)F)ccc2N2CCOCC2)nc1N,-18.7%,"1.3 µM [rising, partial curve]",–

# 2 records picked at random from those above, as already listed:
Compound,cell number change,AC50 [1],AC50 [2]
COc1ccc(NC(=O)CSc2nnc(C3CC3)n2-c2ccccc2)cc1,–,"6.51 µM [rising, single point]","5.8 µM [rising, single point]"
Cc1ccc(OCC(=O)N/N=C\c2c(C)n(C)c3ccccc23)c([N+](=O)[O-])c1,12.9%,"6.51 µM [rising, single point]",–
